Measured values published in paper PMC8291497 (ACS Chemical Biology, 2021).

Assay: general procedure: Fmoc solid-phase peptide synthesis; HBTU / Oxyma Pure
Details: whole synthesis, 214 nm, scale of the general procedure 0.1 mmol

Substance | final HPLC purity
Dansyl-NNG-NGYεNPTYKFFE | > 90%
dansyl-NN G-NGYENGTYKFFE | > 95%
CNPEDLSQKEYSDIINTQEMYNDDLIHF | > 90%
dansyl-NN G-NGFENPTYKFFE | > 95%
Dansyl-NNG-NGYENPTYKφFE | > 90%
dansyl-NN G-NGYENPTYKAFE | > 95%
dansyl-NN G-NGYENPTYKFFE | > 95%
dansyl-NN G-NGYENATYKFFE | > 95%
dansyl-NN G-NGYENPTYKFGE | > 95%
dansyl-NN G-NGYENPTYKGFE | > 95%
dansyl-NN G-NGYENPTpYKFFE | > 95%
dansyl-NN G-NGYENPTYKNal1FE | > 95%
CNPEDLSQKE(pY)SDI I NTQE MYNDDLI HF | > 85%
dansyl-NN G-NGYENPTYAFFE | > 95%
dansyl-NN G-NGYENPTYKFAE | > 95%
TA MRA-NNG-NGYENPTYKFFE | > 95%
Dansyl-NNG-NGψENPTYKFFE | > 90%
NGYENPTYKFFE | > 95%
dansyl-NN G-NGYENPTFKFFE | > 95%
Dansyl-NNG-NγYENPTYKFFE | > 90%
dansyl-NN G-NGYENPTYGFFE | > 95%
dansyl-NN G-NGYENPTYKFNal1E | > 95%
Dansyl )-NN G-NGYEνPTYKFFE | > 90%

Where a sequence shows no end group, the ends are not given.
